# For at least one entry, the source does not settle the construct or the ends of the probe. For some assays here: No signal at the amounts used counts as a negative. For some assays here: A weaker result is weaker than the reference pair of the same experiment. For some assays here: Protein sequences can lack the tags named with them.
# What was measured:
# [1] = target: T1, Ecm16 (Streptomyces lasalocidi) (UniProt Q0X0A9); assay: EMSA; conditions: no echinomycin, 100-300 nM protein; EMSA: same buffer plus 0.1 mg/ml BSA, 50 nM DNA, echinomycin:DNA 1.1:1, 15 min at room temperature, 6% native gel at 4 °C; recombinant protein
# T1 sequence (looked up, limits assumed): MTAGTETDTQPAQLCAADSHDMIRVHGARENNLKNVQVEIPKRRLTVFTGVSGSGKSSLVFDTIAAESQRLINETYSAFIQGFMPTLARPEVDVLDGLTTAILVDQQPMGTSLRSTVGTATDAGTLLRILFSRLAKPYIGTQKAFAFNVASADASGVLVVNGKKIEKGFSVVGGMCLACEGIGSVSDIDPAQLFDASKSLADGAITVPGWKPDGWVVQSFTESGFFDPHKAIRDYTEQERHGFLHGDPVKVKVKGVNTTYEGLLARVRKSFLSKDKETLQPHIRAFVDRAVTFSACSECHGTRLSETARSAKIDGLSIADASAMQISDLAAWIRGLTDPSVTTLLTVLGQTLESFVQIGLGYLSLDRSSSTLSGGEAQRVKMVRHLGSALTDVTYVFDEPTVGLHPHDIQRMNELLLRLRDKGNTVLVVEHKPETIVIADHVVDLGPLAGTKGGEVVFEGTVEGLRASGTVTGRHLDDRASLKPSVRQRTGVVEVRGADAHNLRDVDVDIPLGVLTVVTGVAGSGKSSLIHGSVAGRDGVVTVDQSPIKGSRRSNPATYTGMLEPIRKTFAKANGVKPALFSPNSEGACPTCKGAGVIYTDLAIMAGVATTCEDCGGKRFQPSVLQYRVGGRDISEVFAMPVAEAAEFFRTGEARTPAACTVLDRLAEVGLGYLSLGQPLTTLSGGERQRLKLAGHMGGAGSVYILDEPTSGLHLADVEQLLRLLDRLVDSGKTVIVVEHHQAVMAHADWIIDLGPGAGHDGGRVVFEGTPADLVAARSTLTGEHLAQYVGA
# [2] = target: Ecm16-ΔID (Streptomyces lasalocidi) (UniProt Q0X0A9); assay: EMSA; conditions: 100-300 nM protein, EMSA: same buffer plus 0.1 mg/ml BSA, 50 nM DNA, echinomycin:DNA 1.1:1, 15 min at room temperature, 6% native gel at 4 °C, recombinant protein
# [3] = target: Ecm16-ΔID (Streptomyces lasalocidi) (UniProt Q0X0A9); assay: fluorescence polarization; conditions: undetectable, up to 512 nM protein, FP: 50 mM HEPES pH 7.5, 50 mM NaCl, 50 nM DNA, 4-512 nM protein, temperature not stated, label: 5'-FAM on both strands
Sequence,binding result [1],binding result ([2]; echinomycin-bound DNA),binding result ([2]; no echinomycin),"binding result ([3]; echinomycin-bound DNA, recombinant protein)","binding result ([3]; no echinomycin, recombinant …)"
AGTGATCAGTGGTTACGTAACCACTGATCACT (double strand) [32-bp DNA],binds more weakly,no binding,no binding,–,–
AGTGATCAGTGGTTACGTAACCACTGATCACT (double strand) [FAM 32-bp DNA],–,–,–,no binding,no binding
